Results published in patent publication US20100254996A1, “SYNERGISTIC TREATMENT OF CELLS THAT EXPRESS EPHA2 AND ERBB2” (MEDIMMUNE, LLC, priority 2007, published 2010).
These are yes or no findings as the source states them, for the method shown. Binding seen in cells or lysates may run through a third protein. Some entries that bind do so weakly or less than the wild type.

Amino acid sequences for entries named in this document (tags omitted). Residues count along the entry.
UniProt P29317, residues 24-976: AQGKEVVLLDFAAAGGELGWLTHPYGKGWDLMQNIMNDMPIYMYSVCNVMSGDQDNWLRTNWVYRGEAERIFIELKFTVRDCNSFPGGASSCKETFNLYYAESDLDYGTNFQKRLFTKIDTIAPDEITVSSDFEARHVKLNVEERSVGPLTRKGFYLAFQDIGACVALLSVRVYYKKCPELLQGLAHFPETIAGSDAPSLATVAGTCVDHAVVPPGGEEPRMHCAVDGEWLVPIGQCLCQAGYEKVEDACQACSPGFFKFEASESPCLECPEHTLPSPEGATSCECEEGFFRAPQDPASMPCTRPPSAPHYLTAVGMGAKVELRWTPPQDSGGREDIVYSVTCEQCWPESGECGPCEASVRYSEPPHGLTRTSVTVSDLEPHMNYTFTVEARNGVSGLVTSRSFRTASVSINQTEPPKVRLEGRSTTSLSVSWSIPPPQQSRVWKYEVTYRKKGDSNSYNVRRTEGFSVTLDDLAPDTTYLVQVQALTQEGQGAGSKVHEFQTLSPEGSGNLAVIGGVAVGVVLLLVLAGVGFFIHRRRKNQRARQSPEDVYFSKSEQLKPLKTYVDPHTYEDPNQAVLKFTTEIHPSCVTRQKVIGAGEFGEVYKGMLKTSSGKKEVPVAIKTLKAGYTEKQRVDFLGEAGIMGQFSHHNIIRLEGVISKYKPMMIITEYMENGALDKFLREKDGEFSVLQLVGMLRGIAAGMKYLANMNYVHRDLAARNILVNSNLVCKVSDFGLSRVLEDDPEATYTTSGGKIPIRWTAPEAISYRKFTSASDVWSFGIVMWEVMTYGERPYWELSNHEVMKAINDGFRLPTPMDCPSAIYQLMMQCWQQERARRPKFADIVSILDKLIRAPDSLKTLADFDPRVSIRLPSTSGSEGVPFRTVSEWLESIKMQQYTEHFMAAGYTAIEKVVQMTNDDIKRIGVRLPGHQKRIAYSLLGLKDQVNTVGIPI

Columns and labels:
[1] = molecular target: human ErbB2/HER2 (stably overexpressed in MCF10A cells) (human) (UniProt P04626); assay: co-immunoprecipitation from MCF10A.HER2 cell lysates, immunoblot
[2] = molecular target: myc-tagged human ErbB2 (pcDNA3-erbB2, expressed in COS7 cells) (human) (UniProt P04626); assay: reciprocal co-immunoprecipitation from transfected COS7 cell lysates, immunoblot
[3] = molecular target: myc-tagged human ErbB2 (pcDNA3-erbB2, expressed in COS7 cells) (human) (UniProt P04626); assay: co-immunoprecipitation from transfected COS7 cell lysates, immunoblot

binding [1]: binds | binding [2]: binds | binding [3]: binds
Substance: human EphA2 (from UniProt P29317 24-976) (receptor)
